# Test results published in the supplement of paper PMC8256030.
# The other results are listed elsewhere or left out. Single values are uncertain here, since repeats match poorly.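 HEK293T cells were given each compound shortly before transfection with a reporter in which red mCherry is followed by the SARS-CoV-2 frameshift element and then GFP in the −1 frame, so GFP appears only after frameshifting.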
# System: HEK293T
# Test: percent viability (nuclei count) relative to control; higher = more viable cells
# Details: 10 µM; 24 h
row,SMILES,percent viability
1,C[C@H](O)[C@H](O)[C@H]1CNc2nc(N)[nH]c(=O)c2N1 [Tetrahydrobiopterin],190%
2,Cc1cc(=O)c(C(=O)N[C@@H](C(=O)N[C@@H]2C(=O)N3C(C(=O)O)=C(CSc4nnnn4C)CS[C@H]23)c2ccc(O)cc2)c[nH]1,199%
3,Cc1cc2c(s1)Nc1ccccc1N=C2N1CCN(C)CC1,282%
4,CCC(C/C=C/c1ccccc1)(c1ccccc1)N(C)CC1CC1 (stereo unspecified) [igmesine],150%
5,COC(=O)Nc1nc2cc(OS(=O)(=O)c3ccc(F)cc3)ccc2[nH]1 [luxabendazole],35.8%
6,C#Cc1cccc(Nc2ncnc3cc(OCCOC)c(OCCOC)cc23)c1 [Erlotinib],251%
